In PubChem BioAssay AID1347076 (National Center for Advancing Translational Sciences (NCATS), 2019):
The whole screen tested about 400,000 compounds, of which about 13,000 (3.2%) were called active. This list was built around the results that the source calls inconclusive (neither active nor inactive); the mix of calls is not that of the screen. The call rests on the fitted dose curve; in most records, active means well fitted cell-killing curve with a large enough effect; inconclusive means small, poorly fitted or top-dose-only effect, or effect the other way; inactive means flat fitted curve, though single readings scatter. Potencies beside an inconclusive call are fits to weak or partial responses and may not hold up.
Potency means the concentration at half of the fitted maximal effect.

Assay: qHTS assay for MDR1-selective chemotherapeutics: Primary screen using the drug-selected MDR subline cells KB-V1; further: nearly all actives have a fitted effect of over 60% in size
Conditions: KB-V1 MDR cells viability, CellTiter-Glo, 72 h; series mostly up to 46.1 µM
Procedure, shortened: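 KB-V1 cells (P-gp-expressing MDR subline of KB-3-1) in phenol-red-free DMEM with 10% FBS were exposed to library compounds over a concentration series for 72 h at 37 degrees C. Viability read by CellTiter-Glo luminescence; concentration-effect curves fitted after normalization.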
With `CCOc1ccc(NC(=O)c2nnn(-c3ccc(F)c(Cl)c3)c2C)cc1` the Potency was “inactive”.
For `CNC(=O)c1ccc(NC(=O)CCc2c(C)noc2C)cc1`, the Potency was “inactive”.
For `CCOC(=O)CS(=O)(=O)c1nc(-c2ccccc2)cc(C(F)(F)F)n1`, the Potency was inconclusive: 25.9 µM [cytotoxic, single point].
In the case of `CCN(CC)c1nc(-c2ccccn2)nc(-c2ccccc2)c1C#N`, the Potency is reported as active: 16.4 µM.
In the case of `O=C(Nc1ccc(C(F)(F)F)cc1)C1CCCCN1S(=O)(=O)c1ccccc1` (centres undefined), the Potency is reported as inconclusive: 25.9 µM [cytotoxic, single point].
With `CC(=O)Nc1ccc(N(C(=O)CNC(=O)c2ccco2)C(C(=O)NCc2ccco2)c2ccccc2)cc1` (centres undefined) the Potency was inconclusive: 23.1 µM [rising, single point].
For `COc1ccc(OC)c(NC(=O)c2c(NCc3ccc(N(C)C)cc3)sc3c2CCCC3)c1`, the Potency was “inactive”.
With `Cc1cccc(CCNC(=O)CCCOc2cc(=O)n(C)c3ccccc23)c1` the Potency was inconclusive: 23.1 µM [cytotoxic, single point].
With `CC(OC(=O)Cn1cnc2c1c(=O)n(C)c(=O)n2C)C(=O)N(C)c1ccccc1` (centres undefined) the Potency was “inactive”.
For `COc1cc(OC)cc(C(=O)Nc2ccc3c(c2)n(C)c(=O)c(=O)n3C)c1`, the Potency was “inactive”.
For `CC(C)OC(=O)CSc1nc2c(c(C3CC=CCC3)c1C#N)CCC2` (centres undefined), the Potency was inconclusive: 29.1 µM [cytotoxic, single point].
With `CC(=O)Nc1ccc2nc(NC(=O)c3ccc([N+](=O)[O-])o3)sc2c1` the Potency was active: 16.4 µM.
For `O=C(NC1CCCCC1)c1ccc(S(=O)(=O)NCc2ccco2)cc1`, the Potency was active: 14.6 µM.
For `COC(=O)[C@@]1(Cc2ccc(OC)cc2)[C@@H]2C(=CC(=O)[C@H]2CC(=O)C(=O)N2CCCC2)CN1C(=O)c1ccccc1`, the Potency was inconclusive: 29.1 µM [cytotoxic, single point].
For `O=C(CCCc1ccccc1)Nc1ccnn1C1CCN(Cc2ccccc2)CC1`, the Potency was inconclusive: 2.59 µM [cytotoxic, full curve, poor fit].
For `O=C(N/N=C/c1cccs1)c1ccc(NC(=O)c2ccccc2Cl)cc1`, the Potency was “inactive”.
For `O=C(CN1C(=O)C2C3C=CC(C3)C2C1=O)Nc1ccc2nccnc2c1` (centres undefined), the Potency was inconclusive: 29.1 µM [rising, single point].
With `O=C(c1cc2c(s1)-c1ccccc1S(=O)(=O)C2)N1CCN(Cc2ccccc2)CC1` the Potency was inconclusive: 13 µM [cytotoxic, partial curve, poor fit].
For `CCOC(=O)C1CCCN(C(=O)Cn2cnc3sc(C)c(S(=O)(=O)N4CCOCC4)c3c2=O)C1` (centres undefined), the Potency was “inactive”.
For `Cn1c(/C=C/c2ccccc2)nc2ccccc2c1=O`, the Potency was inconclusive: 23.1 µM [cytotoxic, single point].
With `CC1(C(=O)NS(=O)(=O)c2ccccc2Cl)CCN1C(=O)CCC1CCCC1` (centres undefined) the Potency was “inactive”.
For `COc1ccccc1CNC(=O)COC(=O)/C=C/c1ccc2ccccc2n1`, the Potency was inconclusive: 23.1 µM [rising, single point].
For `Cn1cnnc1SCC(=O)Nc1sc2c(c1C(N)=O)CCC2`, the Potency was “inactive”.
For `O=C(NCCN1C(=O)S/C(=C\c2ccccc2F)C1=O)C1=COCCO1`, the Potency was active: 9.2 µM.
For `COc1ccccc1N1CCN(Cc2ccc(O)c3ncccc23)CC1`, the Potency was inconclusive: 25.9 µM [cytotoxic, partial curve, poor fit].
With `O=C(Nc1ccc(F)c(Cl)c1)C1CCN(S(=O)(=O)c2ccc3c(c2)CCCN3C(=O)C2CCC2)CC1` the Potency was inconclusive: 3.66 µM [cytotoxic, partial curve, poor fit].
In the case of `COc1ccc(S(=O)(=O)Nc2cc3c(cc2C(C)=O)OCO3)cc1`, the Potency is reported as inconclusive: 29.1 µM [cytotoxic, single point].
For `CC(C)(C)CC(C)(C)N=C1Nc2cc(Cl)c(Cl)cc2NC12C[C@H]1CCC(=O)N3CC[C@@H](C2)[C@@H]13` (some centres undefined), the Potency was inconclusive: 29.1 µM [cytotoxic, single point].
In the case of `O=C(Cn1c(SCC(=O)Nc2ccc(F)cc2)nc2ccccc21)NCc1ccc(Cl)cc1`, the Potency is reported as “inactive”.
In the case of `O=C(NC1CC1)c1cccc(NC(=O)C2CCC2)c1`, the Potency is reported as inconclusive: 13 µM [rising, partial curve].
In the case of `COc1ccc(Nc2ncc(C(=O)N3CCN(c4ccccc4OC)CC3)c3ccccc23)cc1`, the Potency is reported as inconclusive: 29.1 µM [cytotoxic, single point].
With `CC1(OC(=O)C2CCCC2)C(=O)C=C2C=C(c3ccsc3)N(c3ccccc3)C=C2C1=O` (centres undefined) the Potency was “inactive”.
With `O=C(CN1CCCCCC1)NC(c1ccccc1)c1ccccc1` the Potency was “inactive”.
For `CCOC(=O)C1=CC[C@H]2c3c(c4ccc(OC)cc4n3C)C(=O)C1N2S(=O)(=O)c1ccc(C)cc1`, the Potency was inconclusive: 18.4 µM [cytotoxic, single point].
With `CCOc1ccc(C(=O)NCCc2sc(-c3ccc(F)cc3)nc2C)cc1` the Potency was “inactive”.
For `CS(=O)(=O)N(CC(=O)N1CCCCCC1)c1ccc(Br)cc1`, the Potency was active: 14.6 µM.
With `Cc1nn(Cc2c(F)c(F)c(F)c(F)c2F)c(C)c1NC(=O)c1ccc(COc2ccc(Cl)cc2Cl)o1` the Potency was active: 18.4 µM.
For `Cc1ccc(S(=O)(=O)Cn2nnnc2C(C(C)C)N2CCSCC2)cc1` (centres undefined), the Potency was inconclusive: 18.4 µM [cytotoxic, partial curve].
For `O=C(Cn1ncc(Cl)c(Cl)c1=O)Nc1ccc2c(c1)OCO2`, the Potency was inconclusive: 20.6 µM [cytotoxic, single point].
With `CCCCCCc1ccc(N2C[C@H](Cc3ccccc3)[C@@H](CC(=O)NCc3ccc(OC)cc3)C2=O)cc1` the Potency was inconclusive: 29.1 µM [cytotoxic, single point].
With `CCN(CC)c1ccc(NC(=O)c2cccnc2)c(C)c1` the Potency was inconclusive: 29.1 µM [cytotoxic, single point].
For `CCN(CC1COc2ccccc2O1)C(=S)Nc1ccccc1` (centres undefined), the Potency was inconclusive: 29.1 µM [cytotoxic, single point].
For `COc1ccc(CN(C)C(=O)c2ccc(NS(=O)(=O)c3ccc(F)cc3)cc2)c(OC)c1OC`, the Potency was inconclusive: 29.1 µM [cytotoxic, single point].
In the case of `COc1ccccc1NC(=O)COC(=O)c1ccccc1C(=O)N1CCN(c2ccccc2)CC1`, the Potency is reported as inconclusive: 8.2 µM [cytotoxic, partial curve].
